Laboratory results taken from PubChem BioAssay AID1347423 (Functional Genomics Laboratory (NCATS/FGL), 2020).
In all, about 52,000 sequences went through this assay and about 210 (0.4%) were called active.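 How the source made its calls: active means gene whose silencing raises cell survival under the drug, median off-target-corrected z-score across its silencing RNAs 2 or more; inactive means the rest.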 The list shows a part of the results.

Assay: Resistance to Poly (ADP-Ribose) Polymerase inhibitor: Gene Identification via Genome-wide siRNA Screen
Details: mouse BRCA2 R2336H ES cells, olaparib, CellTiter-Glo viability; hits give high values
Procedure, shortened: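 Genome-wide siRNA screen (3 siRNAs/gene, 20 nM) in mouse ES cells carrying hypomorphic BRCA2 R2336H; olaparib 500 nM added 48 h post-transfection, CellTiter-Glo viability 72 h later. Normalized to plate-median negative control; MAD z-scores, gene median, seed-adjusted.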

Sequence	z-score
GCCGCUUGAAGACCAGAAATT against Trp53i11	inactive: -0.231
GGGUGGAGUAAAGCUCUAUTT against Olfr1223	inactive: -0.89
GGAUGUCCAGAUGUAAAUATT against Vps16	inactive: -1.42
GCUAAUCAAGACCGAGCAUTT against Vps33b	inactive: 2.61
GGAUGGUGCUGUAAAGAAATT against Crlz1	inactive: -1.61
CCACUAGUUAGGUACUAACTT against Ifitm6	inactive: -1.1
GGAGAGCCUUAUUCAUCGCTT against H2-DMb2	inactive: -0.0154
GGGUAGUUUAUUUCUUUGCTT against AV125803	inactive: 0.827
GCCACUGUACCUUAUUGGUTT against Sepx1	inactive: -0.0851
GGAGGACUGUCCAAAAGAATT against Tnfrsf18	inactive: -0.973
GGAUUUCAACCUUCUUGUUTT against 2310057N15Rik	inactive: -0.385
GCAAGAGUUAGUCUAAUGUTT against A730042J05Rik	inactive: -0.469
GGUAUGAGCUGAUCAAGUATT against Slc27a2	inactive: -0.927
GAAAUGCAACGGCCACUGCTT against Spp1	inactive: -1.61
GGAAAAGCCGCACUUUAUATT against 2700087H15Rik	inactive: -0.564
CCCUGAUUCCAAGUCAUCATT against Lect2	inactive: 1.5
GGUAUUGGGUUCCAUUAUATT against 6030422M02Rik	inactive: 1.94
GCAUGAUGGUGCGCUUAAGTT against 1500001L15Rik	inactive: -0.628
GCCCUUGACUUCAAUACCCTT against Shc1	inactive: 1.72
GGUUUUAGAAUUCUGGACGTT against BC018242	inactive: -0.843
GCAGCGAUGGGUGUUUAUGTT against BC038059	inactive: 0.601
GGGUAUAAUCCACAUCCAATT against Tyms	inactive: -0.673

Sequence	z-score
GGAGGUCAAUGACUUCGCATT against Trip10	inactive: -0.322
CCAAUUUCAUACGGCAGUCTT against Pqlc2	inactive: 1.82
GCGUGCAUAUAUCCAAUGCTT against Tardbp	inactive: 3.08
CGAAGUAUUUGGUGGACCATT against D14Ertd449e	inactive: -1.35
GGAUGUGAUGGCGACUCUATT against B930041G04	inactive: -2.07
GGAAAACGAGUCAAACUCATT against Lnx2	inactive: -0.0784
GCAUUAUGGGACUAGAAGGTT against Scfd1	inactive: 0.84
CCUGAUAUAUGACUUUGGCTT against Ntf5	inactive: -0.0586
GGUGCAAAUGGCAGAUACATT against Olfr919	inactive: -2.6
GGAUGGUUUCCGUAAAGCUTT against Pacsin3	inactive: -0.0425
GGCUUGAAGUUCAUUUAUUTT against Nkiras2	inactive: 0.103
CCAUAUUCGAGAUACUCUGTT against Dnm3	inactive: 1.02
GCUCACAAGCAAGUGCAACTT against Olfr1352	inactive: 1.11
GCACAGCUAUCAAUGAGCUTT against Olfr1410	inactive: -0.483
CAUGAACGUGGGUAAAACGTT against Rab20	inactive: 0.0478
GGGAAUUUUCUCCAAAAUUTT against 5430419D17Rik	inactive: 0.0817
CGACUUGACUGGUCUUAAATT against Cdk8	inactive: -0.636
GCAUGUCAUACCAGCUAGUTT against Nkd2	inactive: 1.1
GGGCAUUCAAAGAUGACUATT against Mrpl39	inactive: -0.59
GCUGGAUCGUUACGUUUAUTT against BC020002	inactive: -1.83
GCCUGCAUUGCAAAUGAAATT against Krtap13-1	inactive: 0.113
CGUGAAGUUGCAUGUAUUUTT against 9530020D24Rik	inactive: -1.36

Sequence	z-score
GCAGACUCUGUAUACCAUGTT against Rfx4	inactive: -1.33
CUUACAUUCCCAGUGUGCCTT against BC047219	inactive: -0.775
GGAACAGGAAUAUGAAAGATT against Olfr836	inactive: 0.288
GCUAUCAUAUGUGCCCUAATT against Mrgprc11	inactive: -1.05
GGAGCUACUGAGAACAUAATT against Hoxd4	inactive: -2.44
GCGAUGCUCCUAAUUCUUATT against 1700094E07Rik	inactive: 0.193
CCUAGUUAUCAGAAGAAAATT against Pax7	inactive: -0.7
GGAGAAGCAUGGCUAUAACTT against Rcor1	inactive: -0.635
GGAACAGCAAAUGUUCUUUTT against Rab38	inactive: 1.55
GGAAUCAAAGGUCAAGCCATT against 2500002L14Rik	inactive: 1.78
CCCAACCAGACCAAUCCACTT against Enam	inactive: -0.457
GCUUGUGAGUCUUUUCCUATT against D430033A06Rik	inactive: 0.988
GGAGACAACUGUCAAGCUGTT against Nope	inactive: -0.959
GGUGGAAUCACAAAAACGCTT against Tnfsf5ip1	inactive: -0.207
CGUAUAGGCACAAAGUAAATT against Gm1012	inactive: 0.715
GCAGCAAACUUUUUAUCCATT against Arcp	inactive: 1.22
GGUCACAGUUGACAAAUGGTT against Cdc16	inactive: -2.53
GGUGAAGCCAGUUCACGAATT against A030008J09	inactive: 0.39
GGCAAUGACUAGAGUAAGATT against Rbbp2	inactive: 0.357
GGAGUCGUAUGAUAACAGATT against 1700023B02Rik	inactive: -0.629
GGAAGCUAUGAACAAUACATT against Sulf2-pending	inactive: 1.46
GGAGGUGAUAAAUAGUGUCTT against C330018L13Rik	inactive: -0.0166

A different layout for part of the listing above.
Sequence | z-score
GCAUGUCAUACCAGCUAGUTT against Nkd2 | inactive: 1.1
GGGCAUUCAAAGAUGACUATT against Mrpl39 | inactive: -0.59
